Test: in vitro
Conditions: human, Caco-2

CC(C)NCC(O)COc1ccc(CC(N)=O)cc1 (stereo not shown) [Atenolol]
Papp A→B at 1 μM: 0.48 ± 0.09 ×10⁻⁶ cm/s

Reference: article PMC5703966, “Systemic clearance and brain distribution of carbazole-based cyanine compounds as Alzheimer’s disease drug candidates” (Scientific Reports, 2017)
